Test results: patent US7709471B2, “Compounds” (AstraZeneca AB, priority 2006, dated 2010)
Some results were stated once for a whole list of compounds, not compound by compound. For at least one compound, name, drawing or mass did not settle the structure.

Each compound was assayed on human colon tumour cell line HT29 (assay: Cellular Assay (phosphohistone H3 Ser10 mitotic marker, HT29)). Conditions: HT29 cells, 24 h.
Type: cell-based

Compound	IC50 [µM]
6-cyclopentyl-9-[[2-methoxy-4-(4-pyrrolidin-1-yl-1-piperidyl)phenyl]amino]-2-methyl-2,6,8,10-tetrazabicyclo[5.4.0]undeca-8,10,12-trien-3-one [Example 110]	< 1
COc1cc(C(=O)NCCN(C(C)C)C(C)C)ccc1Nc1ncc2c(n1)N(C1CCCC1)CCC(=O)N2C [Example 66, 4-[(6-cyclopentyl-2-methyl-3-oxo-2,6,8,10-tetrazabicyclo[5.4.0]undeca-8,10,12-trien-9-yl)amino]-N-[2-(dipropan-2-ylamino)ethyl]-3-methoxy-benzamide]	< 0.3
CN1C(=O)CCN(C2CCCC2)c2nc(Nc3ccc(S(C)(=O)=O)cc3)ncc21 [Example 127, 6-cyclopentyl-2-methyl-9-[(4-methylsulfonylphenyl)amino]-2,6,8,10-tetrazabicyclo[5.4.0]undeca-8,10,12-trien-3-one]	< 30
CN1[C@@H]2CCC[C@H]1C[C@@H](NC(=O)c1ccc(Nc3ncc4c(n3)N(C3CCCC3)CC3(CC3)C(=O)N4)c(F)c1)C2 [Example 279, 4-(9′-cyclopentyl-6′-oxo-5′,6′,8′,9′-tetrahydrospiro[cyclopropane-1,7′-pyrimido[5,4-b][1,4]diazepine]-2′-ylamino)-3-fluoro-N-((1R,3r,5S)-9-methyl-9-azabicyclo[3.3.1]nonan-3-yl)benzamide]	< 1
COc1cc(C(=O)NCCCN2CCCC2)ccc1Nc1ncc2c(n1)N(C1CCCC1)CCC(=O)N2C [Example 68, 4-[(6-cyclopentyl-2-methyl-3-oxo-2,6,8,10-tetrazabicyclo[5.4.0]undeca-8,10,12-trien-9-yl)amino]-3-methoxy-N-(3-pyrrolidin-1-ylpropyl)benzamide]	< 0.3
CCC1(CC)CN(C(C)C)c2nc(Nc3cc(F)c(C(=O)NC4C[C@H]5CCC[C@@H](C4)N5C)cc3OC)ncc2N(C)C1=O (stereo partly drawn) [Example 307, 4-[(4,4-diethyl-6-methyl-5-oxo-2-propan-2-yl-2,6,9,11-tetrazabicyclo[5.4.0]undeca-8,10,12-trien-10-yl)amino]-2-fluoro-5-methoxy-N-[(1S,5R)-9-methyl-9-azabicyclo[3.3.1]non-7-yl]benzamide]	< 0.3
COc1cc(C(=O)NC2CCN(C)CC2)ccc1Nc1ncc2c(n1)N(C1CCCC1)CC(C)C(=O)N2C (centres unmarked) [Example 3, 4-[(4R/S)-(2-Cyclopentyl-4,6-dimethyl-5-oxo-2,6,9,11-tetrazabicyclo[5.4.0]undeca-8,10,12-trien-10-yl)amino]-3-methoxy-N-(1-methyl-4-piperidyl)benzamide]	< 0.3
CCN1CCC(NC(=O)c2ccc(Nc3ncc4c(n3)N(C3CCCC3)CCC(=O)N4C)c(F)c2)CC1 [Example 345, 4-[(2-cyclopentyl-6-methyl-5-oxo-2,6,9,11-tetrazabicyclo[5.4.0]undeca-8,10,12-trien-10-yl)amino]-N-(1-ethyl-4-piperidyl)-3-fluoro-benzamide]	< 0.3
6-cyclopentyl-9-[[2-methoxy-4-[4-(1-piperidyl)-1-piperidyl]phenyl]amino]-2-methyl-2,6,8,10-tetrazabicyclo[5.4.0]undeca-8,10,12-trien-3-one [Example 106]	< 1
COc1cc(C(=O)NCCC2CCCN2C)ccc1Nc1ncc2c(n1)N(C1CCCC1)CCC(=O)N2C (centres unmarked) [Example 79, 4-[(6-cyclopentyl-2-methyl-3-oxo-2,6,8,10-tetrazabicyclo[5.4.0]undeca-8,10,12-trien-9-yl)amino]-3-methoxy-N-[2-(1-methylpyrrolidin-2-yl)ethyl]benzamide]	< 0.3
COc1cc(C(=O)NCCn2ccnc2)ccc1Nc1ncc2c(n1)N(C1CCCC1)CCC(=O)N2C [Example 27, 4-[(6-cyclopentyl-2-methyl-3-oxo-2,6,8,10-tetrazabicyclo[5.4.0]undeca-8,10,12-trien-9-yl)amino]-N-(2-imidazol-1-ylethyl)-3-methoxy-benzamide]	< 1
CCCC1CN(C2CCCC2)c2nc(Nc3ccc(C(=O)NC4CCN(C)CC4)cc3OC)ncc2N(C)C1=O (single isomer, unassigned) [Example 239]	< 1
CCC1(CC)CN(C2CCCC2)c2nc(Nc3ccc(C(=O)NC4C[C@H]5CCC[C@@H](C4)N5C)cc3OC)ncc2N(C)C1=O (stereo partly drawn) [Example 377, 4-[(2-cyclopentyl-4,4-diethyl-6-methyl-5-oxo-2,6,9,11-tetrazabicyclo[5.4.0]undeca-8,10,12-trien-10-yl)amino]-3-methoxy-N-[(1S,5R)-9-methyl-9-azabicyclo[3.3.1]non-7-yl]benzamide]	< 0.3
4-[(2-cyclopentyl-6-methyl-5-oxo-2,6,9,11-tetrazabicyclo[5.4.0]undeca-8,10,12-trien-10-yl)amino]-3-methoxy-N-[(1R,5S)-9-methyl-3-oxa-9-azabicyclo[3.3.1]non-7-yl]benzamide [Example 451]	< 1
CN1C(=O)CCN(C2CCCC2)c2nc(Nc3ccc(N4CCOCC4)c(Cl)c3)ncc21 [Example 126, 9-[(3-chloro-4-morpholin-4-yl-phenyl)amino]-6-cyclopentyl-2-methyl-2,6,8,10-tetrazabicyclo[5.4.0]undeca-8,10,12-trien-3-one]	< 30
CN1C(=O)CCN(C2CCCC2)c2nc(Nc3ccc(C(N)=O)cc3)ncc21 [Example 97, 4-[(6-cyclopentyl-2-methyl-3-oxo-2,6,8,10-tetrazabicyclo[5.4.0]undeca-8,10,12-trien-9-yl)amino]benzamide]	< 1
COc1ccc(C(=O)NC2CCN(C)CC2)cc1Nc1ncc2c(n1)N(C1CCCC1)CCC(=O)N2C [Example 181, 3-[(6-cyclopentyl-2-methyl-3-oxo-2,6,8,10-tetrazabicyclo[5.4.0]undeca-8,10,12-trien-9-yl)amino]-4-methoxy-N-(1-methyl-4-piperidyl)benzamide]	< 0.3
COc1cc(C(=O)NC(C)CN(C)C)ccc1Nc1ncc2c(n1)N(C1CCCC1)CCC(=O)N2C (centres unmarked) [Example 28, 4-[(6-cyclopentyl-2-methyl-3-oxo-2,6,8,10-tetrazabicyclo[5.4.0]undeca-8,10,12-trien-9-yl)amino]-N-(1-dimethylaminopropan-2-yl)-3-methoxy-benzamide]	< 0.3
CCC1(CC)CN(C(C)C)c2nc(Nc3ccc(C(=O)NC4C[C@H]5CCC[C@@H](C4)N5C)cc3OC)ncc2N(C)C1=O (stereo partly drawn) [Example 306, 4-[(4,4-diethyl-6-methyl-5-oxo-2-propan-2-yl-2,6,9,11-tetrazabicyclo[5.4.0]undeca-8,10,12-trien-10-yl)amino]-3-methoxy-N-[(1S,5R)-9-methyl-9-azabicyclo[3.3.1]non-7-yl]benzamide]	< 0.3
CN1C(=O)C(C)(C)CN(C2CCCC2)c2nc(Nc3ccc(C(=O)NC4C[C@H]5CCC[C@@H](C4)N5C)cc3F)ncc21 (stereo partly drawn) [Example 353, 4-[(2-cyclopentyl-4,4,6-trimethyl-5-oxo-2,6,9,11-tetrazabicyclo[5.4.0]undeca-8,10,12-trien-10-yl)amino]-3-fluoro-N-[(1S,5R)-9-methyl-9-azabicyclo[3.3.1]non-7-yl]benzamide]	< 0.3
CCN(CC)CCNC(=O)c1ccc(Nc2ncc3c(n2)N(C2CCCC2)CCC(=O)N3C)cc1 [Example 192, 4-[(6-cyclopentyl-2-methyl-3-oxo-2,6,8,10-tetrazabicyclo[5.4.0]undeca-8,10,12-trien-9-yl)amino]-N-(2-diethylaminoethyl)benzamide]	< 30
COc1cc(Nc2ncc3c(n2)N(C2CCCC2)CCC(=O)N3C)cc(OC)c1OC [Example 129, 6-cyclopentyl-2-methyl-9-[(3,4,5-trimethoxyphenyl)amino]-2,6,8,10-tetrazabicyclo[5.4.0]undeca-8,10,12-trien-3-one]	< 30
CN1C(=O)CCN(C2CCCC2)c2nc(Nc3ccc(C(=O)NC4C[C@H]5CCC[C@@H](C4)N5C)cc3F)ncc21 (stereo partly drawn) [Example 329, 4-[(2-cyclopentyl-6-methyl-5-oxo-2,6,9,11-tetrazabicyclo[5.4.0]undeca-8,10,12-trien-10-yl)amino]-3-fluoro-N-[(1S,5R)-9-methyl-9-azabicyclo[3.3.1]non-3-yl]benzamide]	< 0.3
9-[[4-(4-cyclohexylpiperazin-1-yl)-2-methoxy-phenyl]amino]-6-cyclopentyl-2-methyl-2,6,8,10-tetrazabicyclo[5.4.0]undeca-8,10,12-trien-3-one [Example 108]	< 1
CN1C(=O)CCN(C2CCCC2)c2nc(Nc3c(Cl)cc(C(=O)NC4CCC(N(C)C)CC4)c(F)c3Cl)ncc21 (centres unmarked) [Example 332, 3,5-dichloro-4-[(2-cyclopentyl-6-methyl-5-oxo-2,6,9,11-tetrazabicyclo[5.4.0]undeca-7,9,11-trien-10-yl)amino]-N-(4-dimethylaminocyclohexyl)-2-fluoro-benzamide]	< 30
CCN1CCC(NC(=O)c2cc(OC)c(Nc3ncc4c(n3)N(C3CCCC3)CC(C)(C)C(=O)N4C)cc2F)CC1 [Example 370, 4-[(2-cyclopentyl-4,4,6-trimethyl-5-oxo-2,6,9,11-tetrazabicyclo[5.4.0]undeca-8,10,12-trien-10-yl)amino]-N-(1-ethyl-4-piperidyl)-2-fluoro-5-methoxy-benzamide]	< 0.3
COc1cc(C(=O)NC2C[C@H]3CCC[C@@H](C2)N3C)c(F)cc1Nc1ncc2c(n1)N(C1CCCC1)CCC(=O)N2C (stereo partly drawn) [Example 344, 4-[(2-cyclopentyl-6-methyl-5-oxo-2,6,9,11-tetrazabicyclo[5.4.0]undeca-8,10,12-trien-10-yl)amino]-2-fluoro-5-methoxy-N-[(1S,5R)-9-methyl-9-azabicyclo[3.3.1]non-7-yl]benzamide]	< 0.3
COc1cc(C(=O)NC2CCN(C)CC2)ccc1Nc1ncc2c(n1)N(C1CC1)CCC(=O)N2C [Example 232, 4-[(6-cyclopropyl-2-methyl-3-oxo-2,6,8,10-tetrazabicyclo[5.4.0]undeca-8,10,12-trien-9-yl)amino]-3-methoxy-N-(1-methyl-4-piperidyl)benzamide]	< 30
CN1C(=O)CCN(C2CCCC2)c2nc(Nc3c(Cl)cc(C(=O)NC4CCC(N(C)C)CC4)c(F)c3Cl)ncc21 (centres unmarked) [Example 331, 3,5-dichloro-4-[(2-cyclopentyl-6-methyl-5-oxo-2,6,9,11-tetrazabicyclo[5.4.0]undeca-7,9,11-trien-10-yl)amino]-N-(4-dimethylaminocyclohexyl)-2-fluoro-benzamide]	< 1
